Some of the results follow.
What follows are sequences tested against OsWRKY34 (Oryza sativa, UniProt Q0JBA9 1-250) (assay: protein-binding microarray (RPBM); PBS, 2% BSA, 51.3 ng/ul salmon testes DNA, 50 uM zinc acetate, 200 nM TF, 25 C, 1 h; high values mean tight binding). Conditions: protein: recombinant; tags: N-terminal polyhistidine and DsRed monomer fusion (pET32a); label: CyDye5-dUTP incorporated in the synthesized complementary strand; 3' TTTTT single-stranded linker to array surface; dsDNA, one strand shown.
Summary of the method: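 Per-feature fluorescence intensity (arbitrary units), read on an Axon 4000B scanner, is the binding signal. Transcription factors carrying an N-terminal polyhistidine tag and DsRed fusion were expressed in E. coli BL21-CodonPlus and purified on Ni–NTA. A custom Agilent array, made double-stranded by primer extension with Cy5-dUTP and blocked with 2% BSA, was incubated with 200 nM protein in PBS, 2% BSA, salmon testes DNA and 50 µM zinc acetate at 25 °C for 1 h and then washed.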

Chains of the proteins cited; added tags and fusions are not shown.
UniProt Q0JBA9, entry or part of it: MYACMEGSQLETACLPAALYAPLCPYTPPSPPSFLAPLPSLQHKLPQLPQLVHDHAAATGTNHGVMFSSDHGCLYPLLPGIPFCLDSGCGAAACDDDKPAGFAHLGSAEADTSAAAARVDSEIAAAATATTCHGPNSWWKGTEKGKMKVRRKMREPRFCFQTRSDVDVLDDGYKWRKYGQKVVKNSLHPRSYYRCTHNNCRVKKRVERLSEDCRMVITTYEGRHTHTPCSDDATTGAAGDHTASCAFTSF

Sequence | binding signal
CTCTACTAATGCTAATTTGTCTTGTCCTGAGTTAGTTGTTCGGAGTCACCTAGTGCAG | 8270 fluorescence intensity (a.u.)
GACTCTTCTATTAGTACCTACACATATGGCAGTGAGACTCCGGAGTCACCTAGTGCAG | 8740 fluorescence intensity (a.u.)
ACTTTAATAGGCCTCCAGTCCATCAAGGCCCATAATCTCTCGGAGTCACCTAGTGCAG | 9310 fluorescence intensity (a.u.)
CCCTCTCACTTTCCTGGAATTAATACGCCCATTGTGCACACGGAGTCACCTAGTGCAG | 8180 fluorescence intensity (a.u.)
ATTATTTATTTTATTTGTGACTTACTTTATTATCCAAATTCGGAGTCACCTAGTGCAG | 8050 fluorescence intensity (a.u.)
GTCCCGTGCTTGTTTTTCTTTTCGCATTGTAAATAACTTTCGGAGTCACCTAGTGCAG | 10200 fluorescence intensity (a.u.)
TTAAATTTGCGTGCCATATATATATGTTGATCACTGACCACGGAGTCACCTAGTGCAG | 8470 fluorescence intensity (a.u.)
GTGGCGCTGTCCCGTATTCGCATATAAGGACCGATTCCTGCGGAGTCACCTAGTGCAG | 9010 fluorescence intensity (a.u.)
CCGCCGCCGCTCGTCCGGGCCTCGCCTCGCCTCCGCGACCCGGAGTCACCTAGTGCAG | 8220 fluorescence intensity (a.u.)
GCTGCATGTTCATCTTGTTGTCTCGCTAACGCCTATAGTCCGGAGTCACCTAGTGCAG | 8410 fluorescence intensity (a.u.)
GCTCGTATTGTTGGCTTCCATGTGATTCCTAGCAGGTATTCGGAGTCACCTAGTGCAG | 9230 fluorescence intensity (a.u.)
GTGAGCCGGTCCAATATATACACGTCGTACTCCCGAGAGGCGGAGTCACCTAGTGCAG | 8690 fluorescence intensity (a.u.)
CTTTCACCCGGACAACTCATGAGAAGCAATTTTCCATCTACGGAGTCACCTAGTGCAG | 8370 fluorescence intensity (a.u.)
CGCCCGCCCAGAAAAGCCGCCTCGTTCCGTTGTCTCAGCGCGGAGTCACCTAGTGCAG | 8350 fluorescence intensity (a.u.)
GCATTCCATAGTATATATACTTATCGTGTTTCTCTGAAGACGGAGTCACCTAGTGCAG | 8330 fluorescence intensity (a.u.)
TTTTCATTTTCGTTCTTCCCTCGCTGCGGCTTTCAATTTCCGGAGTCACCTAGTGCAG | 10500 fluorescence intensity (a.u.)
TCAGATCCACTTACTTCGCGCCACACCCTTCGTCTCCATCCGGAGTCACCTAGTGCAG | 10200 fluorescence intensity (a.u.)
TCTCGCCACCGCCACCGCCACCTTAGCCGCGCGAGGCATTCGGAGTCACCTAGTGCAG | 11700 fluorescence intensity (a.u.)
TCCTTACCTTTCTTGACATGCTCAAGGCAACAGCAAACACCGGAGTCACCTAGTGCAG | 8680 fluorescence intensity (a.u.)
CATCTTTTTTTGACCTAGGTATCCCTCTAAGCCAATCACCCGGAGTCACCTAGTGCAG | 10400 fluorescence intensity (a.u.)
TCTGTTTATACAATGTACATTGTGCAAATCCTTTAATCATCGGAGTCACCTAGTGCAG | 8090 fluorescence intensity (a.u.)

Sequence | binding signal
TACCTGATTTGTGCATATGTTTCTTTCTGTTTTGCCCTTACGGAGTCACCTAGTGCAG | 8170 fluorescence intensity (a.u.)
CCTTTCTGCTGTGAATTTTGTTGACGGCGGCGGCAACGACCGGAGTCACCTAGTGCAG | 9040 fluorescence intensity (a.u.)
TTGTATTCCTACCTGAACTCTTCTTTTATTTTCTTTTGCTCGGAGTCACCTAGTGCAG | 9430 fluorescence intensity (a.u.)
CCTCTTGCTATGTGCTGCTCTTCCTTGTTCTTCTTGCCTACGGAGTCACCTAGTGCAG | 10800 fluorescence intensity (a.u.)
CACAACCAAGTTTTTATCTCATGCACTTCCACATCTTTTCCGGAGTCACCTAGTGCAG | 9500 fluorescence intensity (a.u.)
GTGAGTTGTTTATTTTATTATCTTTTTTTAGTCAATTCCACGGAGTCACCTAGTGCAG | 13100 fluorescence intensity (a.u.)
CATTATCTTTCTAGCCTGCTAACCATCACGTACACTTTCCCGGAGTCACCTAGTGCAG | 8760 fluorescence intensity (a.u.)
AACTCATATGATCCACATGTCATTTTCTACCTTTTCTACTCGGAGTCACCTAGTGCAG | 10600 fluorescence intensity (a.u.)
TTTCTTGGCTTTTTTGCGTGCTTCTGTGCTAGTAGTAGCACGGAGTCACCTAGTGCAG | 9120 fluorescence intensity (a.u.)
AACTAGTTTTCCTTCTTGCACCAATTCCTCTTGTTTCTTTCGGAGTCACCTAGTGCAG | 10500 fluorescence intensity (a.u.)
ATGCTTATTATTCACCGAGCACTTTCATCACTTCGGAAGTCGGAGTCACCTAGTGCAG | 8180 fluorescence intensity (a.u.)
TTTAGCTGCATGTGGATGTGTATACACATTGTGTGGTTTTCGGAGTCACCTAGTGCAG | 8870 fluorescence intensity (a.u.)
CGCTGCGCTCTCCTTCATCGCCATCGTTGTTCGCCCTACGCGGAGTCACCTAGTGCAG | 8190 fluorescence intensity (a.u.)
TGAATCCATGGTGGGTCGTTGGCCAACTCCTCCATTTCTCCGGAGTCACCTAGTGCAG | 8970 fluorescence intensity (a.u.)
GTGCACTGGTACGTGGGCGAAGGGATGGAGGAAGGGGAGTCGGAGTCACCTAGTGCAG | 9180 fluorescence intensity (a.u.)
GCCTGCATCTCGCTGATTGTGATGCTGCTGTCCGCTTCCGCGGAGTCACCTAGTGCAG | 9180 fluorescence intensity (a.u.)
CTTCTGCTCTCTAGCTAGCCTTCTTCCTATTGGAAGCTTCCGGAGTCACCTAGTGCAG | 9230 fluorescence intensity (a.u.)
ATGAATTAGGTGTGGTTCTCTTTAATCTGTTATTAGTCATCGGAGTCACCTAGTGCAG | 11000 fluorescence intensity (a.u.)
CAATGATATCTCTACTAGTCATCTCAGCGGCCGGTGGCACCGGAGTCACCTAGTGCAG | 8900 fluorescence intensity (a.u.)
CCCTGCATTCCCGCGTATTCTCCTCATCCATCCATCATCCCGGAGTCACCTAGTGCAG | 12800 fluorescence intensity (a.u.)
TTACCTGTAGGCCGCACGCACGTTGCTCTCGCCTCTCGCACGGAGTCACCTAGTGCAG | 11000 fluorescence intensity (a.u.)

Sequence | binding signal
TCACCACCACGCAATTTGCCAATTCATGCCCGTCTCGTCGCGGAGTCACCTAGTGCAG | 8540 fluorescence intensity (a.u.)
AGTGTCATTTATCATGAGAGTTATTGGTTATGTGGGTTTACGGAGTCACCTAGTGCAG | 9850 fluorescence intensity (a.u.)
GTTTCTTTTTAAATTTGGACCTCTCCGCTCTCCGGCCCAACGGAGTCACCTAGTGCAG | 9420 fluorescence intensity (a.u.)
AAAATCCCATACCAATTACACCCTAGCATACATACATTTTCGGAGTCACCTAGTGCAG | 9640 fluorescence intensity (a.u.)
GGTTTAGGGTATTGAGGCCGGGGCGGCGGAGTGGAGAGGACGGAGTCACCTAGTGCAG | 13500 fluorescence intensity (a.u.)
GCAACCACCGCCCGCTCTCATCCCTTCACAAGTGCGGCGCCGGAGTCACCTAGTGCAG | 8770 fluorescence intensity (a.u.)
CCGTCGCCGCCGTCGTCTCCATCTCCGGCGTCACCTCCGTCGGAGTCACCTAGTGCAG | 9150 fluorescence intensity (a.u.)
TTGCACATCCTTCTAGCTTCATAGTTTGTGTTTTATGTCACGGAGTCACCTAGTGCAG | 8430 fluorescence intensity (a.u.)
ATGGGGCGGGTGCCGTGCTGCGAGAAGGACAACGTGAAGCCGGAGTCACCTAGTGCAG | 8380 fluorescence intensity (a.u.)
ATTCTGATTCTTTTCTTGTGCTGCAATTCCTTTCCTAGTACGGAGTCACCTAGTGCAG | 12000 fluorescence intensity (a.u.)
CTTCCCCTGATGATTGGCCTGAAATGGATGCTCAGGAATTCGGAGTCACCTAGTGCAG | 9120 fluorescence intensity (a.u.)
AACGTACCTCAATATCCATACTATCCGGTCTACAGGTATCCGGAGTCACCTAGTGCAG | 9150 fluorescence intensity (a.u.)
TCATTTCGTGCTGCATTTTTTCACATGCATCCCTGACACGCGGAGTCACCTAGTGCAG | 10300 fluorescence intensity (a.u.)
TGCACACCCTATCCCGAAATACACATCACGCTCACGGGGCCGGAGTCACCTAGTGCAG | 8090 fluorescence intensity (a.u.)
GTCAATTTGGTACCTTGTTCTGCTTTAAACTCCATCACTACGGAGTCACCTAGTGCAG | 11700 fluorescence intensity (a.u.)
GTGGCTGGGAGGATATTTTGGGCTGGTGGTTTGTTGATGTCGGAGTCACCTAGTGCAG | 13000 fluorescence intensity (a.u.)
CTCGTCTGTTTTGTTTTCCCCTCCGACTCCGACTCCGATCCGGAGTCACCTAGTGCAG | 8180 fluorescence intensity (a.u.)
AGACACTCTGGTGCTTTGTTTCTATTTTATTTGGGTGGGGCGGAGTCACCTAGTGCAG | 13000 fluorescence intensity (a.u.)
CCCACCCCACCACCCACCGGCCCCACACGTCAGCTATACACGGAGTCACCTAGTGCAG | 9860 fluorescence intensity (a.u.)
TCTTCTAATATATTGACGTGCAATCCTTTTACGCGTTCGCCGGAGTCACCTAGTGCAG | 8070 fluorescence intensity (a.u.)
CGACCACCTTTTCACCTCCGGATCACCACCGCAATGGCTCCGGAGTCACCTAGTGCAG | 9340 fluorescence intensity (a.u.)

Reformatted field by field: entries from further up.
GTGGCGCTGTCCCGTATTCGCATATAAGGACCGATTCCTGCGGAGTCACCTAGTGCAG
  binding signal: 9010 fluorescence intensity (a.u.)
CTTTCACCCGGACAACTCATGAGAAGCAATTTTCCATCTACGGAGTCACCTAGTGCAG
  binding signal: 8370 fluorescence intensity (a.u.)
AACTCATATGATCCACATGTCATTTTCTACCTTTTCTACTCGGAGTCACCTAGTGCAG
  binding signal: 10600 fluorescence intensity (a.u.)
ATGCTTATTATTCACCGAGCACTTTCATCACTTCGGAAGTCGGAGTCACCTAGTGCAG
  binding signal: 8180 fluorescence intensity (a.u.)

Following part.

Sequence | binding signal
GTGAGCTTTATTTATCTTTTGTCAATAATCATTTTCTCCACGGAGTCACCTAGTGCAG | 8880 fluorescence intensity (a.u.)
GATCGGTTCTTGCCTTCTTGGGCTGCTTCAGGGGCGTGGGCGGAGTCACCTAGTGCAG | 10900 fluorescence intensity (a.u.)
CAAATCGAATCGACCGCGAACACCCTCGTTTCCACCCGCGCGGAGTCACCTAGTGCAG | 9080 fluorescence intensity (a.u.)
AGTTTAATTTTTCTATGGTTGGTTCTTGTGTGCTCCTAAGCGGAGTCACCTAGTGCAG | 10500 fluorescence intensity (a.u.)
ACACTAACTCCGTGTCTCCGCACATCCTTCATTCGCCCACCGGAGTCACCTAGTGCAG | 11200 fluorescence intensity (a.u.)
TTGTTTTTTTCTTTTTTTCGCCCGGATTTTTTTTGGATCGCGGAGTCACCTAGTGCAG | 9400 fluorescence intensity (a.u.)
GCATATTTATTCTTTTTCTTAACTTGAATACGTTGAATTTCGGAGTCACCTAGTGCAG | 9410 fluorescence intensity (a.u.)
TCGTCACCGGCCGTCCCTCTCCGTCTGCTACGTTAGCTTGCGGAGTCACCTAGTGCAG | 8140 fluorescence intensity (a.u.)
GGGTTAGATGCTTATCGCGCCATAAGGCGCGTCAATTTTCCGGAGTCACCTAGTGCAG | 9510 fluorescence intensity (a.u.)
TCTGCTCGATCCCGCCTTTGCCTGCGGATTCCCACCCTGACGGAGTCACCTAGTGCAG | 10600 fluorescence intensity (a.u.)
CAAAACAGTCACTACTCGTAACATGGTATAGGTGGTTGACCGGAGTCACCTAGTGCAG | 8760 fluorescence intensity (a.u.)
CTCTTTCTCTTTCTCTTCTTCCCTTTCGTCTTCGTCTTCGCGGAGTCACCTAGTGCAG | 8180 fluorescence intensity (a.u.)
ACACTAGGCCCAAGGCAAGCCCACCACTCGTGCTCGTAACCGGAGTCACCTAGTGCAG | 10700 fluorescence intensity (a.u.)
CGTCGCCCGCCTCCACTCAGCTGCCGCCGCCTCCAAGACGCGGAGTCACCTAGTGCAG | 8780 fluorescence intensity (a.u.)
GATCGCGGCCATCGTTAGACTCATCCCAGCCGTCCACCTACGGAGTCACCTAGTGCAG | 9620 fluorescence intensity (a.u.)
CATTATTGTTTTATTATCGTGACACATGTTGTTCTCATAACGGAGTCACCTAGTGCAG | 9650 fluorescence intensity (a.u.)
CCATATTTGCCAAGAAAGAAATGGGCCGGGGTTAATGTTTCGGAGTCACCTAGTGCAG | 8680 fluorescence intensity (a.u.)
AAATTAGGTGTAGTTTTGATTTTTTCTGGTAACGTTTGACCGGAGTCACCTAGTGCAG | 9180 fluorescence intensity (a.u.)
ATCTCTCACTGACATGTGGGGCCCACGACCTGCCTTATCCCGGAGTCACCTAGTGCAG | 9270 fluorescence intensity (a.u.)
CTCCCTTGTAATTCCTAAATCCGTCTCTTCTTCCGCCGGCCGGAGTCACCTAGTGCAG | 8310 fluorescence intensity (a.u.)
CCCATTGAACCCGTCTCTTCTACCCTTCGCCGACATCGCCCGGAGTCACCTAGTGCAG | 8420 fluorescence intensity (a.u.)

Two successive entries from above, quoted:
Sequence | binding signal
GCATATTTATTCTTTTTCTTAACTTGAATACGTTGAATTTCGGAGTCACCTAGTGCAG | 9410 fluorescence intensity (a.u.)
TCGTCACCGGCCGTCCCTCTCCGTCTGCTACGTTAGCTTGCGGAGTCACCTAGTGCAG | 8140 fluorescence intensity (a.u.)
